Test results published in PMC7125926 (Antiviral Research, 2015).

Legend:
[1] = MTT assay of drug toxicity in mouse lung slices; assay type: cell-based
[2] = tested on: PR8 (H1N1) influenza virus; assay type: cell-based
influenza virus = assay type: in vivo, mice; conditions: Fig. S5
influenza A virus = conditions: ref An et al., 2014; cited from earlier work
IP-10 = assay: tissue or blood; assay type: cell-based; conditions: Mus musculus, 48 h, read-out: IP-10-EC50: 50% effective concentration determined by ELISA of IP-10

SMILES	CC50 at 48 h [1] [µM]	effect on virus replication / NA activity in lung slices (in words) [2]	protection of mice from lethal doses of influenza virus infection (in words) (influenza virus)	antiviral activity in MDCK cells (in words) (influenza A virus)	EC50 (IP-10) [µM]
CCN(CC)CCOC(=O)C1(C2CCCCC2)CCCCC1 [Dicyclomine]	65.2	inhibited neither	failed to protect mice	known antiviral activity	
C[S+]([O-])c1ccc(-c2nc(-c3ccncc3)c(-c3ccc(F)cc3)[nH]2)cc1 (centres unmarked) [SB203580]					15.1
